For the assay, the target named is flag-Grk2 (UniProt P25098). The experiment in a line: co-IP.

Protein sequences, listed by entry. Tags and fused reporters are not part of them.
UniProt P25098: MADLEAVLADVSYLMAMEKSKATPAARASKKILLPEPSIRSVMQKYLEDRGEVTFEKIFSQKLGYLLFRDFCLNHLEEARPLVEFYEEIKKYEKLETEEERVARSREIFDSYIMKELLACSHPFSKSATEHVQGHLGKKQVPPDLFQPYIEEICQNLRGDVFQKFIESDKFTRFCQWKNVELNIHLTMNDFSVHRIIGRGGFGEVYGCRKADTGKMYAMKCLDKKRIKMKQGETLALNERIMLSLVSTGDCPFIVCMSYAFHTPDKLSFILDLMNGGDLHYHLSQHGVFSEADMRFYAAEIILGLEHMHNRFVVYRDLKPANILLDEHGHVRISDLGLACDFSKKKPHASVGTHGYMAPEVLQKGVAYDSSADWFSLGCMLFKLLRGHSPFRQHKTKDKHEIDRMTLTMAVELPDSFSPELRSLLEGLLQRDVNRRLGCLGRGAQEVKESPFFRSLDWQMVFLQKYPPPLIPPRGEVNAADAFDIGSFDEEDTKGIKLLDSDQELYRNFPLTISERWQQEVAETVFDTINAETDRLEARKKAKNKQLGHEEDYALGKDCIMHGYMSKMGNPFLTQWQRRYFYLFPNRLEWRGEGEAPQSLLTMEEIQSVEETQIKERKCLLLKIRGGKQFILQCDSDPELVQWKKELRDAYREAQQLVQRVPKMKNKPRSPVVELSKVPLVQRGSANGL
UniProt Q8TCU6: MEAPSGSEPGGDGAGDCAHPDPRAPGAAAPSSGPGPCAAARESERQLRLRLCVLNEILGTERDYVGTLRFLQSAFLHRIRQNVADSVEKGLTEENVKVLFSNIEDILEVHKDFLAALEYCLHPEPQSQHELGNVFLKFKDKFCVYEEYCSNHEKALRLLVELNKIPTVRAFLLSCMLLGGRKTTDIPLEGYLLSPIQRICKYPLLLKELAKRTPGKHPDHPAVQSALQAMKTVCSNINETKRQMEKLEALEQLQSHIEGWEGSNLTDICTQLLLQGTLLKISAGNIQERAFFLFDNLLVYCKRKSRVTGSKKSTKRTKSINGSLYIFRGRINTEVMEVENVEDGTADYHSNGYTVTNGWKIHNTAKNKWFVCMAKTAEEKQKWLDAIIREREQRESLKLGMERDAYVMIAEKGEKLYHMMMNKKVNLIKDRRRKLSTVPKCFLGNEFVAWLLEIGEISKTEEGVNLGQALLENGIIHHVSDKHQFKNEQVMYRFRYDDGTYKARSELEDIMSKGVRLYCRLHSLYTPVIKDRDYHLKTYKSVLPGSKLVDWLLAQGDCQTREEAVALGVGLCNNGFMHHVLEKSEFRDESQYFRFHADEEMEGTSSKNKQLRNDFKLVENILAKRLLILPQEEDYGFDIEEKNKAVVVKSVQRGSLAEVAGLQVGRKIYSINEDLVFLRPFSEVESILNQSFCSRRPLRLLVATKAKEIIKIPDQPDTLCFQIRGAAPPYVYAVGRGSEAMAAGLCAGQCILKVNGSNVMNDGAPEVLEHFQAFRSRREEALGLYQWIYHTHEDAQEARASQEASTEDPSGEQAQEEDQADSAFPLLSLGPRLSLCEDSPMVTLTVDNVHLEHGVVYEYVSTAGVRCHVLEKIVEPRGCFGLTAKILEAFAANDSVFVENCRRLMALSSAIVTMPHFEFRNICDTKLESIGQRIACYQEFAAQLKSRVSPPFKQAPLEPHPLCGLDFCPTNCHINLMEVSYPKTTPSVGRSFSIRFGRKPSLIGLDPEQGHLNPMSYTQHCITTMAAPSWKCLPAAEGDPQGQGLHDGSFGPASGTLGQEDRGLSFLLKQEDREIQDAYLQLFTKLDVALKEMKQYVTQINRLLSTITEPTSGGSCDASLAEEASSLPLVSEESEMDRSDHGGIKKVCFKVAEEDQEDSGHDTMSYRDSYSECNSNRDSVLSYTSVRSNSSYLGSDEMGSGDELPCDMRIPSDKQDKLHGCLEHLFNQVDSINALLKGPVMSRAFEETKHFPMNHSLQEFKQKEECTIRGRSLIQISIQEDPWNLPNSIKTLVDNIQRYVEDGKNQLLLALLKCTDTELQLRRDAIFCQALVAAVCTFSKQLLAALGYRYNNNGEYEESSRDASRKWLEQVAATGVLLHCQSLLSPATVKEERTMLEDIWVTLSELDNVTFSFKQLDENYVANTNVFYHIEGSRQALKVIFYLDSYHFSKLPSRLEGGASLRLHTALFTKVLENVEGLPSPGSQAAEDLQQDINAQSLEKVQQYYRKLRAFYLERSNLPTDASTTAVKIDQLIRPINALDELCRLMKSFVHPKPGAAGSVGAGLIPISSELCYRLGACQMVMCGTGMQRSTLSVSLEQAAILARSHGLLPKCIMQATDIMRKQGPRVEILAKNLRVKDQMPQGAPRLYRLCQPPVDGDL

These are yes or no findings as the source states them, for the method shown. In cells and extracts the contact can be indirect. Some binding calls cover weakened binding; strength is not graded here.

As to myc-P-Rex1 (from UniProt Q8TCU6 1-1659), the binding result was “binds”.

The values are drawn from article doi:10.1101/2025.04.14.648762.
